These are yes or no findings as the source states them, for the method shown. Binding seen in cells or lysates may run through a third protein. Some binding calls cover weakened binding; strength is not graded here. Tags and fused reporters may be left off the sequences shown.
Tests used:
[1] = biological target: T1, NEFL fused to a Myc-tag at the C-terminus (NEFL-Myc) (UniProt P07196); assay: co-immunoprecipitation from transfected Neuro-2a lysates (anti-GFP pull-down, western blot; reverse NEFL-Myc pull-down also confirmed the interaction)
T1 sequence (looked up): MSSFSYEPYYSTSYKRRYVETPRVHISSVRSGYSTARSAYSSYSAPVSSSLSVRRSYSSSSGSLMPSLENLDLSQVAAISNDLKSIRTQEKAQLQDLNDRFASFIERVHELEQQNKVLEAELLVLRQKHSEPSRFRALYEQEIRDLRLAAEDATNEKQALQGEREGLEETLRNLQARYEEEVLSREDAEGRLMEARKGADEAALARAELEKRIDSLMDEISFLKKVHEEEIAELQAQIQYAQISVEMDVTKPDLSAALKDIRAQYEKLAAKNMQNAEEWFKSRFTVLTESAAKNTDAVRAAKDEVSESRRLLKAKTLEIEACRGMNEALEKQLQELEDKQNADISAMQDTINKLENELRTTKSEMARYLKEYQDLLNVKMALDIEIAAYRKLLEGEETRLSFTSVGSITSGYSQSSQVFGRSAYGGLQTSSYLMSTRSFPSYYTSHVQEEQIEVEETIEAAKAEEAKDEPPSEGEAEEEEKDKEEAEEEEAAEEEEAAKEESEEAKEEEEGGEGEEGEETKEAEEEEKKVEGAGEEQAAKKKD

[2] = biological target: T1, NEFL fused to a Myc-tag at the C-terminus (NEFL-Myc); assay: co-immunoprecipitation with antibody against GFP or Myc, IgG as negative control (FIG. 3 legend)

binding [1]: binds
binding [2]: binds
B1: GFP-tagged wild type NEFH protein (GFP-WT-NEFH) (protein, human, UniProt P12036 1-1020, looked up, not shown: large carriers)
chain: MMSFGGADALLGAPFAPLHGGGSLHYALARKGGAGGTRSAAGSSSGFHSWTRTSVSSVSASPSRFRGAGAASSTDSLDTLSNGPEGCMVAVATSRSEKEQLQALNDRFAGYIDKVRQLEAHNRSLEGEAAALRQQQAGRSAMGELYEREVREMRGAVLRLGAARGQLRLEQEHLLEDIAHVRQRLDDEARQREEAEAAARALARFAQEAEAARVDLQKKAQALQEECGYLRRHHQEEVGELLGQIQGSGAAQAQMQAETRDALKCDVTSALREIRAQLEGHAVQSTLQSEEWFRVRLDRLSEAAKVNTDAMRSAQEEITEYRRQLQARTTELEALKSTKDSLERQRSELEDRHQADIASYQEAIQQLDAELRNTKWEMAAQLREYQDLLNVKMALDIEIAAYRKLLEGEECRIGFGPIPFSLPEGLPKIPSVSTHIKVKSEEKIKVVEKSEKETVIVEEQTEETQVTEEVTEEEEKEAKEEEGKEEEGGEEEEAEGGEEETKSPPAEEAASPEKEAKSPVKEEAKSPAEAKSPEKEEAKSPAEVKSPEKAKSPAKEEAKSPPEAKSPEKEEAKSPAEVKSPEKAKSPAKEEAKSPAEAKSPEKAKSPVKEEAKSPAEAKSPVKEEAKSPAEVKSPEKAKSPTKEEAKSPEKAKSPEKEEAKSPEKAKSPVKAEAKSPEKAKSPVKAEAKSPEKAKSPVKEEAKSPEKAKSPVKEEAKSPEKAKSPVKEEAKTPEKAKSPVKEEAKSPEKAKSPEKAKTLDVKSPEAKTPAKEEARSPADKFPEKAKSPVKEEVKSPEKAKSPLKEDAKAPEKEIPKKEEVKSPVKEEEKPQEVKVKEPPKKAEEEKAPATPKTEEKKDSKKEEAPKKEAPKPKVEEKKEPAVEKPKESKVEAKKEEAEDKKKVPTPEKEAPAKVEVKEDAKPKEKTEVAKKEPDDAKAKEPSKPAEKKEAAPEKKDTKEEKAKKPEEKPKTEAKAKEDDKTLSKEPSKPKAEKAEKSSSTDQKDSKPPEKATEDKAAKGK
